Measurements reported in PubChem BioAssay AID1224830 (NIAID, 2016).

- Assay: 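Regulators of TLR4 signalling towards TNF-alpha in macrophage-like cells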 (primary screen)
- System: human THP-1 monocytic leukaemia cells, TNF dual-luciferase reporter clone, PMA-differentiated to macrophage-like cells
- Reagent: siRNA pool against human genes, 50 nM
- Duration: LPS for 4 h, given about 3 days after siRNA transfection
- Treatment: bacterial LPS (TLR4 ligand), 10 ng/ml
- Measurement: 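Ratio of firefly to renilla light, scaled to the plate median and expressed as a robust z-score per replicate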
- Scale: TNF reporter robust z-score: higher = stronger TNF reporter response to LPS
- Active means: 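a well is active when its z-score exceeds 2.8 or falls below -1.5; control wells carry no call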
Here is a random part of about 18,000 deposited reagents. Over the whole deposit, about 2,900 (16%) were called active. 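Calls are made per well; low scores hint the gene aids the LPS response, high scores that it dampens it.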 Repeated entries: four replicate wells of each siRNA pool.

gene	TNF reporter robust z-score	outcome
SOX13	-1.9	active
SOX13	-2.03	active
SOX13	-1.89	active
ATXN3	-0.41	inactive
ATXN3	0.35	inactive
ATXN3	0.2	inactive
ATXN3	-0.05	inactive
LRRC4C	-1.1	inactive
LRRC4C	-0.55	inactive
LRRC4C	-0.47	inactive
LRRC4C	0.07	inactive
SLC5A5	-1.16	inactive
SLC5A5	-1.12	inactive
SLC5A5	-0.91	inactive
CHML	0	inactive
CHML	-1.96	active
CHML	-0.63	inactive
CHML	-0.66	inactive
LY6K	0.42	inactive
LY6K	1.78	inactive
LY6K	0.13	inactive
LY6K	-1.38	inactive
MINK1	-0.64	inactive
MINK1	-0.54	inactive
MINK1	-1.23	inactive
MINK1	-0.24	inactive
MTMR9	1.18	inactive
MTMR9	4.51	active
MTMR9	0.59	inactive
MTMR9	2.34	inactive
ZFX	2.5	inactive
ZFX	6.89	active
ZFX	1.77	inactive
ZFX	1.26	inactive
MCRIP1	0.86	inactive
MCRIP1	0.52	inactive
MCRIP1	-1.76	active
MCRIP1	0.16	inactive
EXOC3L4	0.16	inactive
EXOC3L4	-0.07	inactive
EXOC3L4	-0.3	inactive
EXOC3L4	-0.43	inactive
DESI1	2.23	inactive
DESI1	2.17	inactive
DESI1	4.11	active
DESI1	2.43	inactive
TRIM77	-0.38	inactive
TRIM77	-0.26	inactive
TRIM77	0.26	inactive
TRIM77	-1.04	inactive
CABP5	2.46	inactive
CABP5	2.66	inactive
CABP5	1.57	inactive
CABP5	-0.09	inactive
TRAM2	-0.15	inactive
TRAM2	0.41	inactive
TRAM2	-0.38	inactive
TRAM2	-0.8	inactive
CNTNAP3	-1.74	active
CNTNAP3	-1.8	active
CNTNAP3	-2.09	active
CNTNAP3	-1.29	inactive
TTC5	0.59	inactive
TTC5	-0.27	inactive
TTC5	1.34	inactive
TTC5	0.1	inactive
GAS2L3	0.55	inactive
GAS2L3	-0.09	inactive
GAS2L3	0.25	inactive
GAS2L3	0.44	inactive
UNC79	-0.87	inactive
UNC79	-0.67	inactive
UNC79	-0.5	inactive
UNC79	-0.28	inactive
DEDD	-0.16	inactive
DEDD	-0.83	inactive
DEDD	-0.9	inactive
DEDD	-0.97	inactive
PTP4A3	-0.58	inactive
PTP4A3	-1.18	inactive
PTP4A3	-0.6	inactive
PTP4A3	1.09	inactive
GPT		inactive
GPT	1.43	inactive
GPT	2.96	active
GPT	1.91	inactive
GPT	2.31	inactive
RABGAP1L	0.75	inactive
RABGAP1L	-0.08	inactive
RABGAP1L	-0.25	inactive
RABGAP1L	-0.88	inactive
IL4	-0.63	inactive
IL4	-0.13	inactive
IL4	-0.44	inactive
IL4	-0.4	inactive
SIAH1	-1	inactive
SIAH1	-0.49	inactive
SIAH1	0.06	inactive
SIAH1	0.04	inactive
UEVLD	-1.46	inactive
UEVLD	-0.94	inactive
UEVLD	-0.38	inactive
UEVLD	-0.2	inactive
CHCHD4	-0.02	inactive
CHCHD4	0.24	inactive
CHCHD4	0.08	inactive
CHCHD4	0.06	inactive
PRMT5	2.04	inactive
PRMT5	0.93	inactive
PRMT5	-0.27	inactive
PRMT5	0.72	inactive
EXT2	-1.32	inactive
EXT2	-1.26	inactive
EXT2	-1.18	inactive
EXT2	-1.35	inactive
NDUFS1	-0.26	inactive
NDUFS1	-0.03	inactive
NDUFS1	-0.09	inactive
NDUFS1	0.77	inactive
EFNB1	0.78	inactive
EFNB1	2.43	inactive
EFNB1	0.87	inactive
EFNB1	1.55	inactive
WHR1	-0.89	inactive
WHR1	-0.49	inactive
WHR1	-0.63	inactive
WHR1	0.8	inactive
TBL1X	0.15	inactive
TBL1X	0.61	inactive
TBL1X	0.39	inactive
TBL1X	0.37	inactive
EFNA1	0.36	inactive
EFNA1	0.68	inactive
EFNA1	-0.4	inactive
EFNA1	1.12	inactive
RHOG	0.59	inactive
RHOG	0.55	inactive
RHOG	-0.45	inactive
RHOG	0.81	inactive
PMM1	-0.13	inactive
PMM1	1.12	inactive
PMM1	-0.25	inactive
PMM1	1.44	inactive
